The data set addresses CsrA (UniProt P33911). Briefly: EMSA. As to conditions: 0.15 fmol labelled RNA, increasing CsrA; RNA-RNA EMSAs in the paper: TMN buffer, 37 C, 30 min, 6% native PAA gel; recombinant protein; label: internal 32P-[alpha-UTP]; probe letters rebuilt from the primers and the genome; part of a longer molecule.

Amino acid sequences for entries named in this document (tags omitted). A change or cut given only in a name is not applied to a line headed by its entry.
UniProt P33911: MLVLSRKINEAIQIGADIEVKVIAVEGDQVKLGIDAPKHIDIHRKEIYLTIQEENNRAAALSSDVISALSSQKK

For at least one entry, the source does not settle the construct or the ends of the probe.

On to “AGGUAAAAGUCAAUCUGUAUAUGUCGAAACACGAUGAUCAUGCAAAGGAGGGAUUCUGUGGAACAGGAUACGCAGCAUGUUAAACCACUUCAAACAAAAACCGAUAUUCAUGCAGUCUUGGCCUCUAAUGGACGCAUCAUUUAUAUAUCUGCCAACUCCAAACUGCAUUUGGGCUAUCUCCAAGGAGAGAUGAUCGGAUCAUUCCUCAAAACGUUUCUGCAUGAGGAAGACCA [kinA233 mRNA (5' 233 nt)]”, for which the binding result is “binds”.

(Values after paper PMC8501984.)
